According to patent publication US8481752B2, “Fluorescent imaging with substituted cyanine dyes” (Li-Cor, Inc., priority 2009, dated 2013):
Several values for one entry are separate records, joined by “and”; a condition that tells them apart may be missing. Identical values can stand only once. Where no unit stands, none is given here, and values compare only within one read-out.

Each substance was assayed on actin (assay: Western blot of Jurkat lysate, anti-actin and Biotin-SP GAM, detected with 680 streptavidin bioconjugates). Conditions: control IRDye 680 Streptavidin.
In the case of “SA-Compound 8 D/P 2.0: streptavidin conjugate of compound 8, D/P 2.0”, the “Bkgd % of Control” value is reported as 130% and the “Sample % Intensity of Control” value is reported as 306%. For “SA-Compound 8 D/P 1.1: streptavidin conjugate of compound 8, D/P 1.1”, the “Bkgd % of Control” value was 114% and the “Sample % Intensity of Control” value was 274%. In the case of “SA-Compound 8 D/P 1.3: streptavidin conjugate of compound 8, D/P 1.3”, the “Bkgd % of Control” value is reported as 117% and the “Sample % Intensity of Control” value is reported as 224%.

Same assay, conditions: mean of two blots
In the case of “SA-Compound 8 D/P 2.0: streptavidin conjugate of compound 8, D/P 2.0”, the “Sample Mean Intensity” value is reported as 56.8. “SA-Compound 8 D/P 1.1: streptavidin conjugate of compound 8, D/P 1.1” was tested, and the “Sample Mean Intensity” value was 50.9. For “IRDye ® 680-Streptavidin: commercially available IRDye® 680 streptavidin conjugate”, the “Sample Mean Intensity” value was 18.6. In the case of “SA-Compound 8 D/P 1.3: streptavidin conjugate of compound 8, D/P 1.3”, the “Sample Mean Intensity” value is reported as 41.5.

Same assay, conditions: single blots; conjugate 0.4 μg/ml
In the case of “SA-Compound 8 D/P 2.0: streptavidin conjugate of compound 8, D/P 2.0”, the “Bkgd Intensity” value is reported as 411 Counts and 364 Counts. For “SA-Compound 8 D/P 1.1: streptavidin conjugate of compound 8, D/P 1.1”, the “Bkgd Intensity” value was 333 Counts and 348 Counts and the “Sample Fluorescence Intensity” value was 46.0 K Counts and 55.8 K Counts. For “IRDye ® 680-Streptavidin: commercially available IRDye® 680 streptavidin conjugate”, the “Bkgd Intensity” value was 302 Counts and 293 Counts and the “Sample Fluorescence Intensity” value was 15.7 K Counts and 21.4 K Counts. For “SA-Compound 8 D/P 1.3: streptavidin conjugate of compound 8, D/P 1.3”, the “Bkgd Intensity” value was 348 Counts and 350 Counts and the “Sample Fluorescence Intensity” value was 51.3 K Counts and 31.7 K Counts.
